# Measurements reported in PubChem BioAssay AID743121 (NCATS, 2013).
# Aim: 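Knock-downs that sensitise breast cancer cells to camptothecin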 (primary screen)
# System: MDA-MB-231 cells, a human breast cancer line
# Reagent: single siRNA against human genes, 20 nM siRNA (0.8 pmol per well)
# Time to read-out: 120 h (drug added 48 h after transfection, read 72 h later)
# Challenge: camptothecin 20 nM (about EC30) for 72 h; vehicle 0.1% DMSO in parallel plates
# Measurement: 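Cell viability by ATP luminescence (CellTiter-Glo) as % of non-targeting siRNA wells, and the log2 ratio of viability without drug over viability with camptothecin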
# Scale: log2 vehicle/camptothecin viability: higher = stronger sensitisation to camptothecin; viability with camptothecin: higher = more viable cells
# Rule for the call: 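Each gene scored by redundant siRNA activity (RSA) over its individual siRNA ratios; a gene is called active at p < 0.001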
# Shown is a random part of about 26,000 reagents tested. Of all reagents, 167 (0.63%) got an active call. 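Calls are per gene from RSA p-values that are not deposited; an individual active-marked siRNA can sensitise only weakly.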 A number with no mark means an inactive call. Reagents against one gene are numbered here. Not all columns of the deposit are shown.
The opening 8 entries, to show the layout:
gene symbol,reagent,log2 vehicle/camptothecin viability,viability with camptothecin (% of control)
SKP2,1,-0.266,90.5
SKP2,2,0.12,91.8
SKP2,3,0.446,62.7
SKP2,4,-0.0969,64.5
FBXL3,1,-0.00146,102
FBXL3,2,-0.372,83.9
FBXL3,3,0.625,47.4
FBXL3,4,-0.209,109

The listing, repeating the preview:
gene symbol,reagent,log2 vehicle/camptothecin viability,viability with camptothecin (% of control)
SKP2,1,-0.266,90.5
SKP2,2,0.12,91.8
SKP2,3,0.446,62.7
SKP2,4,-0.0969,64.5
FBXL3,1,-0.00146,102
FBXL3,2,-0.372,83.9
FBXL3,3,0.625,47.4
FBXL3,4,-0.209,109
MMP8,1,-0.127,57.2
MMP8,2,-0.135,73.3
MMP8,3,-0.735,125
MMP8,4,0.359,73.7
TUBB,1,0.0644,73.7
TUBB,2,0.54,16.6
TUBB,3,-0.665,23.9
DHRS11,1,1.78,4.9
DHRS11,2,-0.202,68.2
DHRS11,3,-0.177,72.2
DHRS11,4,-0.305,8.91
SLC10A5,1,-0.477,95.6
SLC10A5,2,-0.275,107
SLC10A5,3,0.0618,97.2
SLC10A5,4,0.252,45.1
ATP6V1A,1,-0.598,15
ATP6V1A,2,-0.427,64.6
ATP6V1A,3,-0.0512,63.1
HVCN1,1,-0.136,94.2
HVCN1,2,0.189,21.7
HVCN1,3,-0.511,92.8
GCLC,1,-0.107,84.9
GCLC,2,-0.14,110
GCLC,3,-0.375,121
MS4A7,1,-0.193,58.9
MS4A7,2,0.0742,87.5
MS4A7,3,-0.148,98.1
MS4A7,4,-0.511,115
RPL4,1,-0.455,42.5
RPL4,2,-0.428,45.8
RPL4,3,-0.209,107
RPL4,4,-0.8,31.9
BDH2,1,-0.272,91.2
BDH2,2,0.0675,78.9
BDH2,3,-0.125,77.1
BDH2,4,-0.139,116
IRF4,1,0.0907,74.5
IRF4,2,0.116,104
IRF4,3,0.583,11.4
IRF4,4,0.0388,93.5
MGMT,1,0.0807,82.3
MGMT,2,0.2,81.8
MGMT,3,0.0637,95.9
MGMT,4,-0.652,95.9
EGFR,1,0.0877,60.6
EGFR,2,-0.501,81.8
EGFR,3,-0.303,107
EGFR,4,-0.329,101
SMARCD3,1,-0.302,34.6
SMARCD3,2,-0.267,67.6
SMARCD3,3,-0.421,64.4
SMARCD3,4,0.685,16.1
ALG6,1,0.206,68.3
ALG6,2,-0.247,79.8
ALG6,3,-0.15,60.8
CYP27B1,1,-0.275,98.1
CYP27B1,2,-0.125,120
CYP27B1,3,-0.108,93.3
CYP27B1,4,0.367,58.8
MTA2,1,0.204,96.8
MTA2,2,0.561,45.3
MTA2,3,0.441,68.8
MTA2,4,-0.168,75.8
